Measured values taken from patent US20230364057A1, “BACTERIAL DNA GYRASE INHIBITORS AND METHODS OF USE THEREOF” (THE FLORIDA INTERNATIONAL UNIVERSITY BOARD OF TRUSTEES, priority 2022, published 2023).
At least one structure is not confirmed: it was looked up by name or label, or the drawing left a doubt.

Columns and labels:
[1] = target: E. coli DNA gyrase (Escherichia coli (strain K12), UniProt P0AES4+P0AES6); test: Agarose gel-based DNA gyrase inhibition assay; format: biochemical
Experimental: 100 ng of DNA gyrase was used to supercoil the rx pAB1 in the presence of different concentrations of a gyrase inhibitor. […] Samples were analyzed by electrophoresis in 1% w/v agarose gels followed by ethidium bromide staining and photographed under UV light.

[2] = target: Mtb gyrase (Mycobacterium tuberculosis (strain ATCC 25618 / H37Rv), UniProt P9WG45+P9WG47); test: Mtb gyrase mediated DNA cleavage assay; format: biochemical; conditions: pBR322, 50-100 µM
Experimental: The IC50 against E. coli (A) and Mtb (C) gyrase were determined using the gel-based gyrase inhibition assays. The gyrase mediated DNA cleavage assays (B and D) were performed using pBR322. (A) 229 inhibits E. coli gyrase. Lane 1, rx pAB1. […] Lane 1, rx pAB1. […] 100 µM of CPDs were used. Symbols rx, nk, In, and sc represent relaxed, nicked, linear, and supercoiled DNA, respectively.

Q: How did the “inhibition of E. coli DNA gyrase activities” value ([1]; 200 µM of compounds) turn out when `O=C(Nc1cccc(C2=NCCN2)c1)Nc1cccc(C2=NCCN2)c1` [Compound 79] was run?
A: completely inhibited

Q: Which “inhibition of E. coli DNA gyrase activities” value ([1]; 50 µM of compounds) does the source give for `Cc1c(CCC(=O)O)c(=O)oc2c(C)c3occ(-c4ccccc4)c3cc12` [Compound 121] here?
A: completely inhibited

Q: `C[n+]1c(-c2ccc(/C=C/C=N/NC(=O)c3ccc(C(=O)N/N=C/c4ccc(-c5cn6ccccc6[n+]5C)cc4)cc3)cc2)cn2ccccc21` [Compound 261] was tested. Which “Mtb gyrase-mediated DNA nicking and double-stranded breaks” value [2] did it give?
A: nicked more than half of the DNA sample
